Measured values taken from PubChem BioAssay AID504847 (National Center for Advancing Translational Sciences (NCATS), 2011).
Values joined by “and” are separate entries in the source; they are usually repeats but may differ in a detail not shown here. Identical values can stand only once. About 3,700 (0.93%) of roughly 400,000 compounds were called active. The shares of active, inactive and inconclusive entries below differ from those in the screen. The call rests on the fitted dose curve; in most records, active means well fitted inhibition curve with a large enough effect; inconclusive means small, poorly fitted or top-dose-only effect, or another doubt; inactive means no such curve, though single readings can be large or run the other way. Potencies beside an inconclusive call are fits to weak or partial responses and may not hold up.

Protein sequences, listed by entry. Tags and fused reporters are not part of them. Lines headed by an entry give the natural chain unless they say otherwise; changes in a name come on top.
UniProt P11473: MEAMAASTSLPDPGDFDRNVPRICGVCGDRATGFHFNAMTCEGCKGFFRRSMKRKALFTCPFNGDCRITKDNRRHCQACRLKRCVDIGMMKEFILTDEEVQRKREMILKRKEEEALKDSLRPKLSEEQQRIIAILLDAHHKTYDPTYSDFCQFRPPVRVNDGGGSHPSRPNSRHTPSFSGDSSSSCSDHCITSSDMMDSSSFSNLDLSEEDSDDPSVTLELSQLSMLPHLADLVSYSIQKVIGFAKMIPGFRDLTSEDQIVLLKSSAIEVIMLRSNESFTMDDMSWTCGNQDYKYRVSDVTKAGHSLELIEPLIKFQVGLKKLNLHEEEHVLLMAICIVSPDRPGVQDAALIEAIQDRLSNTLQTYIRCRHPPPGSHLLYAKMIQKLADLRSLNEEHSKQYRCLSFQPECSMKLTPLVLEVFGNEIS

biological target: Vitamin D3 receptor (Homo sapiens) (UniProt P11473); experiment: Inhibitors of the vitamin D receptor (VDR): qHTS; conditions: VDR-SRC2-3 peptide fluorescence polarization, 2 h; max response, negative = inhibition: active compounds read low
How it was run: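 The screen uses fluorescence polarization to detect compounds that interfere with recruitment of the SRC2-3 coactivator peptide to VDR; plates are read after 2 h at room temperature.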
On the % scale 0 is the no-effect control and ±100 the full control effect; potency means the concentration at half of the fitted maximal effect.

Potency, active:
O=C(CSC1=NCCS1)c1ccc(Cl)cc1 79.4 µM
Cc1cccc2c1N(Cc1ccccc1OCCC(C)C)C(=O)C2=O 22.4 µM
Nc1cccc2c1C(=O)N(C(=O)/C=C/c1cccc(Br)c1)C2=O 39.8 µM
O=C(COc1ccc(Cl)cc1)Nc1cnn(Cc2c(Cl)cccc2Cl)c1 89.1 µM
O=C(/C=C/c1cccnc1)/C=C/c1cccnc1 12.6 µM
Cc1ccc2sc(NNC(=O)c3cc(=O)c4ccccc4o3)nc2c1C 7.94 µM
CN(Cc1ccco1)c1ncncc1-c1ccccc1Cl 28.2 µM
Cn1c(=O)c2c([nH]c(=S)n2CCCc2ccccc2)n(C)c1=O 79.4 µM
CS(=O)(=O)c1ccc(S(=O)CC(=O)Oc2ccc(Cl)cc2)c([N+](=O)[O-])c1 (stereo not given) 3.55 µM

Potency, inconclusive:
Cc1ccc(S(=O)(=O)n2nc(C)c(C#N)c2N)cc1 56.2 µM [inhibitor, partial curve, poor fit]
COC(=O)c1sc(N2C(=O)C(O)=C(C(=O)c3ccc(C)o3)C2c2ccc([N+](=O)[O-])cc2)nc1C (stereo not given) 56.2 µM [inhibitor, partial curve, poor fit]
O=[N+]([O-])c1ccc(CS(=O)c2ccccc2)cc1 (stereo not given) 70.8 µM [inhibitor, single point]
NC(=O)COc1ccc(/C=C2\C(=O)ON=C2c2ccccc2)cc1 56.2 µM [inhibitor, partial curve, poor fit]
Cc1ccc(F)cc1NC(=O)C12CC3CC(C1)CC(n1cnc([N+](=O)[O-])n1)(C3)C2 3.16 µM [inhibitor, partial curve, poor fit]
Cc1ccccc1NC(=O)CSC1=NCCN1 63.1 µM [inhibitor, partial curve, poor fit]
COc1ccc2[nH]c(=O)c(CN(Cc3cccs3)C(=S)NCC3CCCO3)cc2c1 (stereo not given) 100 µM [inhibitor, partial curve, poor fit]
CN(C)c1ccc(/C=C/C(=O)c2c(O)c3ccccc3oc2=O)cc1 20 µM [inhibitor, full curve, poor fit]
COc1ccccc1NC(=O)c1c(NCc2ccc(C)o2)sc2c1CCCCC2 22.4 µM [inhibitor, partial curve, poor fit]
CCOC(=O)c1nn(-c2ccc(Cl)cc2)c(=O)c(C#N)c1C 1.12 µM [inhibitor, partial curve, poor fit]
CN1CCC(=NNC(=O)c2cn(-c3ccccc3)nc2-c2ccccc2)CC1 89.1 µM [inhibitor, single point]
CCOc1ccc(C(=O)c2ccc(OC)c(O)c2O)cc1 50.1 µM [inhibitor, partial curve]
Cc1ccc(Cl)c(OCCN2CCc3ccccc3C2)c1 79.4 µM [inhibitor, partial curve, poor fit]
O=S1(=O)CC/C(=N\Nc2ccccc2)c2ccsc21 79.4 µM [inhibitor, partial curve, poor fit]
Cc1cccc(NC(=S)N(CCN(C)C)C(C)c2ccco2)c1 (stereo not given) 28.2 µM [inhibitor, single point]
CCOC(=O)C1=C(C)N=c2s/c(=C\c3ccc(C(=O)O)cc3)c(=O)n2C1c1ccc(OC)cc1OC (stereo not given) 56.2 µM [inhibitor, partial curve, poor fit]
COC(=O)c1ccccc1OCCOCCOc1cccc2cccnc12 35.5 µM [inhibitor, partial curve, poor fit]
Cc1c(C(=O)N2CCN(c3ccccc3)CC2)oc2c(F)cccc12 89.1 µM [inhibitor, single point]
CC(C)C(C)(C#N)NC(=O)CSc1nnc(-c2ccncc2)n1Cc1ccccc1 (stereo not given) 89.1 µM [inhibitor, single point]
COc1cccc(/C=N/c2nc3ccccc3n2C)c1O 79.4 µM [inhibitor, single point]
COc1ccc2nc(-c3ccco3)c(-c3ccco3)nc2c1 50.1 µM [inhibitor, partial curve, poor fit]
Cc1cc(NS(=O)(=O)c2ccc(Nc3nc(-c4sc(N)nc4C)cs3)cc2)no1 89.1 µM [inhibitor, single point]
CN1c2ccc(C=O)c3c(C=O)ccc(c23)N(C)C1(C)C 56.2 µM [inhibitor, partial curve, poor fit]
N#Cc1ccccc1CN1C(=O)c2ccccc2S1(=O)=O 79.4 µM [inhibitor, partial curve, poor fit]
CC(NC(=O)CSC(=S)N(C)C)C12CC3CC(CC(C3)C1)C2 (stereo not given) 89.1 µM [inhibitor, single point]
Cc1ccc(N2C(=O)c3n[nH]c(C)c3C2c2ccc(Cl)cc2)cc1 (stereo not given) 79.4 µM [inhibitor, partial curve, poor fit]
CCn1c(-c2cc(-c3cc(C)ccc3C)nc3ccccc23)n[nH]c1=S 100 µM [inhibitor, single point]
Cc1ccsc1C=Nc1ccc(O)cc1 39.8 µM [inhibitor, partial curve, poor fit]
c1ccc(C(c2ccccc2)N2CC[C@@]3(CCCNC3)C2)cc1 79.4 µM [inhibitor, partial curve]
CCc1ccccc1NS(=O)(=O)c1ccc2nc(-c3ccccc3)[nH]c2c1 89.1 µM [inhibitor, single point]
CCN1C(=O)N[C@@H](CCc2ccccc2)C(C(C)=O)=C1C 89.1 µM [inhibitor, partial curve, poor fit]
CNC(=O)COC(=O)c1cc(-c2ccco2)nc2ccccc12 31.6 µM [inhibitor, single point]
C#Cc1ccc([C@@H]2C=C(C(=O)NC3CC3)O[C@H](OCC)[C@H]2CCCO)cc1 89.1 µM [inhibitor, single point]
COc1ccc([C@@H]2CC=C(C(=O)O)[C@H](c3ccc(Cl)cc3)N2S(=O)(=O)c2ccc(Cl)cc2)cc1 28.2 µM [inhibitor, partial curve, poor fit]
O=c1c2c(nc(NCCO)n1CC1CCCCC1)-c1ccccc1CC21CCCC1 22.4 µM [inhibitor, full curve, poor fit]
NC(=S)NN=C(Cc1ccccc1)Cc1ccccc1 79.4 µM [inhibitor, partial curve, poor fit]
CCOc1cc(C=C(C(=O)OC)C(=O)OC)ccc1OCc1ccc([N+](=O)[O-])cc1 11.2 µM [inhibitor, full curve, poor fit]

Max response, negative = inhibition, inactive:
COc1cc(CN2CCN(S(=O)(=O)c3ccc(NC(C)=O)cc3)CC2)cc(OC)c1OC 6.69%
O=[N+]([O-])c1nn(-c2ccc3c(c2)OCCO3)n(O)c1=Nc1ccccc1 -10.8%
Cc1cc(C)n2nc(SCCCC(=O)c3ccc(F)cc3)nc2n1 -14%
Cc1noc(C)c1-c1nc(N2CCOCC2)c2ccccc2n1 -4.76%
O=C(NCN1CCN(c2ccccc2F)CC1)c1ccccc1 8.98%
COc1cccc(-n2c(SCC(N)=O)nc3c([nH]c4ccccc43)c2=O)c1 19.5%
CN(CC(=O)Nc1cc(C(F)(F)F)ccc1-n1cncn1)Cc1ccccc1N1CCOCC1 -0.793%
COc1ccc(NC2=CC(c3ccc(OC)cc3)N(c3ccc(OC)cc3)C2=O)cc1 (stereo not given) -27.1%
COc1ccc(Cn2c(O)c(C=Nc3ccccc3C(=O)O)c3ccccc3c2=O)cc1 -9.92%
O=S(=O)(c1cccc(-c2cn3cccnc3n2)c1)N1CCOCC1 3.96%
COCCn1c(-c2ccc(OC)cc2)nc2ccccc21 -9.08%
COc1ccc(NC(=S)/N=C(\N)Nc2nc(C)c3ccc(C)cc3n2)cc1 -20.1%
Clc1ccccc1OCCCn1ccnc1 -0.465%
CCC(C)c1ccccc1OCCCCN1CCCC1 (stereo not given) -12.3%
COc1cc(-c2nnc(COC(=O)c3ccc(C)o3)o2)cc(OC)c1OC -18.4%
COc1ccc(NC(=O)Cn2c(=O)n(Cc3ccccc3OC)c(=O)c3cccnc32)cc1Cl 3.91%
O=C(COc1ccccc1)Nc1ccc(N2CCN(C(=O)c3ccco3)CC2)cc1 1.44%
CCOC(=O)c1[nH]cnc1C(=O)Nc1cccc(OC)c1 3.05% and -14.4%
Cc1cccc(N=C2NC(=O)/C(=C/c3cccnc3)S2)c1C 5.06%
COc1cccc(C(=S)N2CCOCC2)c1OS(=O)(=O)c1ccc(Cl)cc1 -4.53%
CO/N=C/c1c(-c2ccc(Cl)cc2)nc2cc(C)ccn12 3.37%
CCCCNC(=O)CSc1nc2cc3c(cc2c(=O)n1CCCC(=O)NCCc1ccc(OC)c(OC)c1)OCO3 10.7% and 8.86%
O=C(COC(=O)CCC(=O)c1ccc(Cl)cc1)NCc1ccco1 -5.24%
Oc1ccc2c(c1)c1c3n2CCNC3CCC1 (stereo not given) 6.99%
